Primary screen of a compound library

By UniProt entry, the sequences of proteins in these tests, tags left out.
UniProt E9BF75, entry or part of it: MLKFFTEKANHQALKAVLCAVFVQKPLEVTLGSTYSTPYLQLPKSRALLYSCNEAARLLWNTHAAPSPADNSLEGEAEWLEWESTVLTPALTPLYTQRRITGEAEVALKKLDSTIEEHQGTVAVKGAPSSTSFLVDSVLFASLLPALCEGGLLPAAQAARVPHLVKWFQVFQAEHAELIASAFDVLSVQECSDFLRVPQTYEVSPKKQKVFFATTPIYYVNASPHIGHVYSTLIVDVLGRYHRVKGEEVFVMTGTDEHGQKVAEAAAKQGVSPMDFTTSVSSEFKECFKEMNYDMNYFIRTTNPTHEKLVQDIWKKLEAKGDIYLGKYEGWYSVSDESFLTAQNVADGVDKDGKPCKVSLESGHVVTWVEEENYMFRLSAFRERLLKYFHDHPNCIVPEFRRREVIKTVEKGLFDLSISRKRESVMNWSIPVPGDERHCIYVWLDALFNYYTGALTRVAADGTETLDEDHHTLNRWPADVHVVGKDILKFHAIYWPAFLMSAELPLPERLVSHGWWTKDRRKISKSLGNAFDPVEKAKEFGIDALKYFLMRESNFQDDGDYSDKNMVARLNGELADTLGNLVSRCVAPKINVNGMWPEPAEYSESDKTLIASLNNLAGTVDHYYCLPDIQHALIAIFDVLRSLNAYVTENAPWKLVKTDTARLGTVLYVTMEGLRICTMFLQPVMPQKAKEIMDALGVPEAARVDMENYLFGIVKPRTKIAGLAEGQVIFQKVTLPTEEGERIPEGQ

The values are deposited in ChEMBL (CHEMBL3988442, “University of Dundee, Small-Polar-MMV Screening Library” (2021)).

LdMetRS: 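Methionyl-tRNA synthetase (putative), Leishmania donovani (UniProt E9BF75). Primary screen of methionyl-tRNA synthetase; the read-out is not stated. The test concentration is not given. Values are per cent inhibition. About 68,000 compounds were tested under these conditions; 0.035% (about 24) showed 50% or more at least once.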
Mtb heat-shock: 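Assay on Mycobacterium tuberculosis, filed only as a heat shock assay from Cornell; the read-out is not stated. The concentration is filed as 10 mM, unlikely as a test dose, so the dose is not known. The record gives no direction; compounds that gave an IC50 in retests scored well above the rest, so higher reads as stronger inhibition. Size under these conditions: about 69,000 compounds, about 930 of them at 50% or above in at least one test.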

Results are percentages, as filed. The controls that fix the scale are not given in the record; negative values are as filed. This is an unselected part of the compounds tested. A dash means the value is not listed here; it may have been measured.

SMILES	LdMetRS	Mtb heat-shock
O=C(c1ccco1)N1CCc2ncnc(Oc3cccnc3)c2CC1	15.31%	-
O[C@H]1[C@H](NCCc2cnccn2)c2ccccc2C12CCNCC2	13.75%	-2.569%
Cc1ccnc(CC(C)N(C)Cc2ccc3c(c2)OCCO3)c1 (configuration not stated)	11.96%	-12%
O=C(CC1CCCCC1)N1CCC(O)(C(F)(F)F)C1 (configuration not stated)	11.53%	19.02%
Cn1cnnc1C1CCCN(C(=O)Cc2ccc3c(c2)OCCO3)C1 (configuration not stated)	12.5%	-1.998%
O=C(O)C(F)(F)F.[H][C@@]12CN(Cc3cccs3)CCO[C@]1([H])CN(S(=O)(=O)CCC)C2	-	-8.012%
c1cc(CN2Cc3nnn(CC4CC4)c3C(COCC3CC3)C2)co1 (configuration not stated)	11.59%	-
c1cc(-c2cnccn2)cc(-c2ccn(CCN3CCCCC3)n2)c1	4.982%	11.68%
Cc1nc[nH]c1CN1C[C@@H]2CC[C@H](C1)N(C(=O)CCNS(C)(=O)=O)C2	11.5%	-
COCCN1CCC2(CC1)CC(NC(=O)COC)c1ccccc1O2.O=C(O)C(F)(F)F (configuration not stated)	-	-4.974%
COc1ccc(CC(=O)N2CCCC(n3cc(C)cn3)C2)c(OC)c1 (configuration not stated)	18.79%	-6.655%
COc1ccccc1OCCNc1snc(Cl)c1C#N	5.307%	3.618%
Cn1cnnc1C1CCCN(C(=O)c2ccc3c(c2)OCCCO3)C1 (configuration not stated)	18.75%	-23.43%
O=C(C1CC1)N1CCc2c(ncnc2NCCc2nc3c(s2)CCC3)C1	5.575%	21.9%
Cn1cc(CCNC(=O)c2cc3ccccc3nc2N2CCCC2)cn1	8.871%	6.656%
COCC1CN(C(=O)CNC(C)=O)Cc2ncnn2C1 (configuration not stated)	13.39%	9.077%
CCc1nc(CN2CCCC(NCc3ccc(C(N)=O)cc3)C2)no1 (configuration not stated)	3.286%	-8.669%
Cn1cc(CCCN2CCCC(c3cc(C(F)(F)F)[nH]n3)C2)cn1 (configuration not stated)	16.1%	-18.98%
CCOCCC1(CNC(=O)c2ccncc2Cl)CCC1	8.877%	1.427%
CSCC(C)(O)CNc1cccc(F)c1C(C)=O (configuration not stated)	6.87%	-1.814%
Cc1nn(C)cc1NC(=O)CN1CCN(C2CCCC2)C(=O)C1	11.63%	-5.174%
O=C(Cc1cc(-c2ccc3c(c2)OCCO3)on1)NCc1ccccn1	4.348%	14.86%
Cc1nc(C2CCCN(C(=O)c3cccc4c3OCCO4)C2)no1 (configuration not stated)	23.21%	10.67%
COc1cc2c(nn1)CCN(Cc1nnc(Cc3ccccc3)o1)C2	12.03%	3.356%
CC(C)CSCCCNC(=O)C1CCOC1 (configuration not stated)	12.89%	-6.404%
CC(C)(C)N1CC(c2ncc(-c3ccc4c(c3)OCCO4)[nH]2)CC1=O (configuration not stated)	4.326%	16.36%
CC(C)CC(C)(CNC(=O)c1cnccn1)NC(=O)c1cnccn1 (configuration not stated)	13.14%	-9.382%
NC(=O)C1CCCN(C(=O)c2ccn(-c3ccc(F)cc3)n2)C1 (configuration not stated)	18.44%	-7.583%
O=C(O)[C@H]1C[C@@H](C(=O)NCc2ccncc2)CN(Cc2ccccc2)C1	9.322%	-8.532%
CCn1nc2c(cc1=O)CN(CC(=O)Nc1cc(C(C)C)no1)CC2	17.6%	6.665%
Cc1noc(C)c1CN1C[C@H](OCC2CC2)[C@H]2OCCC[C@H]21	11.52%	-
O=C(O)C(F)(F)F.[H][C@@]12C[C@@H](C(=O)NC(C)C)C[C@@]1([H])N(Cc1ccco1)CCO2	-	-6.053%
Cc1nc(CN2CCCN(CCCc3ccccc3)CC2)no1	10.47%	5.696%
CN(C)CC(=O)N1CCC2(CCc3ccc(-c4ccncc4)cc32)CC1	14.13%	-
CCOc1ccc(C(=O)CCC(=O)N(C)Cc2nc(C)c[nH]2)cc1C	8.403%	-34.76%
N#CCCN(C(=O)CN1CCCC1c1ccsc1)c1ccccc1 (configuration not stated)	3.492%	-1.957%
CC(=O)Nc1ncc(S(=O)(=O)Nc2cccc(C)c2)s1	23.37%	5.097%
Cc1ccc(-c2cnnc(NCC3(N4CCOCC4)CCCC3)n2)o1	11.87%	-25.9%
[H][C@]12CC[C@@]3(N=C(C)N(CC(C)C)C3=O)[C@@]1([H])CN(C(=O)NCC(C)C)C2	-	-38.47%
Cc1ncc2c(n1)CN(CCCc1nc3ccccc3o1)CC2	23.78%	1.77%
CC(NCc1ccncc1)c1cc2c(cc1Br)OCCO2 (configuration not stated)	17.83%	-9.394%
CN(CCc1ccccc1)c1cnn(C)c(=O)c1Br	3.715%	-12.37%
O=C(N1CCCC1)N1CCC(c2nccn2Cc2cscn2)CC1	7.358%	4.584%
Cc1ccc(CN2CCC3(CCC3NC(=O)c3ccn(C)c3)CC2)s1.O=C(O)C(F)(F)F (configuration not stated)	-	-18.37%
CCn1nc(C)c(-c2cncn2Cc2ccccc2CN(C)C)c1C.Cl	-	2.066%
CCS(=O)(=O)NC1CCCN(c2ccc(F)cc2C)C1=O (configuration not stated)	9.399%	13.44%
Cc1nn(C)c(C)c1C1COCCN1C(=O)c1cnc(N)c(Cl)c1 (configuration not stated)	3.644%	8.836%
CC(NCc1ccccc1Cl)c1ccc(OCC(=O)NC2CC2)cc1 (configuration not stated)	23.21%	-2.347%
NC(=O)c1cnc(-c2ccccc2)nc1CCNC(=O)CN1CCCC1	7.349%	5.621%
O=C(c1ccco1)N1C[C@H]2CCCN(Cc3nccs3)[C@H]2C1	4.575%	-
Cc1nc(C)n(CC2CN(Cc3cccc(OC(C)C)c3)CCO2)n1 (configuration not stated)	13.14%	-12.43%
Cc1noc(CNc2ccccc2C(=O)N2CCCC(O)C2)n1 (configuration not stated)	2.957%	-17.6%
Cc1ccc(CN(CCCn2ccnc2)Cc2cc(F)ccc2F)s1	5.145%	-
CC1CN(C)c2ccccc2CN1C(=O)c1cc[nH]c(=O)c1 (configuration not stated)	18.39%	-4.951%
Cc1nc(N(C)CCN(C)C)c2cnn(C)c2n1	0%	-18.7%
[H][C@@]12C[C@H](NC(=O)c3nc4ccccc4[nH]3)CN1CCN(C)C2	-	22.57%
O=C(NCc1ccco1)[C@@H]1CCO[C@@H]2CCN(c3ccncn3)C[C@H]21	16.32%	-
Cc1ccc(CN2CC[C@@H]3[C@@H](CO[C@H]3CN3CCN(C)CC3)C2)s1	-7.614%	-
CC(C)N1CCC2(CC1)C(=O)N(c1cccnc1)c1ccc(F)cc12.Cl	-	2.938%
CN(Cc1cccnc1)C1CC2(CCN(C(=O)c3ccnnc3)CC2)C1	7.299%	9.361%
COc1cccc(Cn2cc(N3C(=O)CCC3=O)cn2)c1	21.09%	7.462%
O=C(c1cnco1)N1C[C@@H]2CC[C@H](Oc3cccc(F)c3)[C@@H]2C1	15.41%	-
CC(C)(C)N1CC(C(=O)N2CC(Oc3ccc(F)cc3)C2)CC1=O (configuration not stated)	3.75%	-22.18%
Fc1cccc(-c2noc3c2CN(Cc2cncn2C2CC2)CC3)c1	8.696%	39.34%
CCn1cnnc1CNC(=O)N1CCC(C)CC1	6.017%	-15.4%
Cc1nc(CN2CCCC(N(C)CC3CCCC3)C2)no1 (configuration not stated)	20.11%	-8.728%
O=C(NC1CC1)C1=CC2(CCN(CC3CC3)CC2)c2ccccc21.O=C(O)C(F)(F)F	-	-12.48%
CNC(=O)c1cccnc1N1CCN(Cc2ccccc2)C(CCO)C1 (configuration not stated)	14.97%	-20%
CC(C)N(C)Cc1cncc2c1CCN(C1CCOCC1)C2	7.65%	-
CCC(C)N(Cc1ccncc1)Cc1cccc(Cn2cccn2)c1 (configuration not stated)	7.617%	0.9404%
COc1cccc(C(C(=O)O)N2CCC(Cn3cccn3)CC2)c1OC (configuration not stated)	9.851%	-14.57%
Cc1nc(CN)cc(N2CCC(O)(c3ccc(Cl)cc3)CC2)n1	8.521%	34.37%
Cc1cccc(CNC[C@H]2Cn3ccnc3CO2)n1	10.51%	-10.49%